Reference: US20220363770A1
No constants are given. Whether binding was seen depends on the method and setting.

B1: anti-CGRP receptor variant 10, yeast-displayed Fab (Fab, V domains shown)
VH: QVQLVESGGGVVQPGRSLRLSCAASGFFFGSYGMHWVRQAPGKGLEWVAVISFAGEIEHYVDSVKGRFTISRDNSKNTLFLQMNSLRAEDTAVYYCARDRLNYYESSGYYHYKYYGMAVWGQGTTVTVSS
VL: QSVLTQPPSVSAAPGQKVTISCSGSSSNIGNNYVSWYQQLPGTAPKLLIYDNNKRPSGIPDRFSGSKSGTSATLGITGLQTGDEADYYCGTWDSRLSAVVFGGGTKLTVLG
B2: anti-CGRP receptor variant 08, yeast-displayed Fab (Fab, V domains shown)
VH: QVQLVESGGGVVQPGRSLRLSCAASGFTFSSFGMHWVRQAPGKGLEWVAVISFDGSIKYSVDSVKGRFTISRDNSKNTLFLQMNSLRAEDTAVYYCARDRLNYYESSGYYHYKYYGMAVWGQGTTVTVSS
VL: QSVLTQPPSVSAAPGQKVTISCSGSYSNIGWWPVSWYQQLPGTAPKLLIYDNNKRPSGIPDRFSGSKSGTSATLGITGLQTGDEADYYCGTWDSRLSAVVFGGGTKLTVLG
B3: anti-CGRP receptor variant 02, yeast-displayed Fab (Fab, V domains shown)
VH: QVQLVESGGGVVQPGRSLRLSCAASGFTFSSFGMHWVRQAPGKGLEWVAVISFDGSIKYSVDSVKGRFTISRDNSKNTLFLQMNSLRAEDTAVYYCARDRLNYYESSGYYHYKYYGMAVWGQGTTVTVSS
VL: QSVLTQPPSVSAAPGQKVTISCSGSRSNIGIKAVSWYQQLPGTAPKLLIYDNNKRPSGIPDRFSGSKSGTSATLGITGLQTGDEADYYCGTWDSRLSAVVFGGGTKLTVLG
B4: anti-CGRP receptor variant 06, yeast-displayed Fab (Fab, V domains shown)
VH: QVQLVESGGGVVQPGRSLRLSCAASGFTFSSFGMHWVRQAPGKGLEWVAVISFDGSIKYSVDSVKGRFTISRDNSKNTLFLQMNSLRAEDTAVYYCARDRLNYYESSGYYHYKYYGMAVWGQGTTVTVSS
VL: QSVLTQPPSVSAAPGQKVTISCSGSYSNIGRKSVSWYQQLPGTAPKLLIYDNNKRPSGIPDRFSGSKSGTSATLGITGLQTGDEADYYCGTWDSRLSAVVFGGGTKLTVLG
B5: anti-CGRP receptor variant 09, yeast-displayed Fab (Fab, V domains shown)
VH: QVQLVESGGGVVQPGRSLRLSCAASGFTFSSFGMHWVRQAPGKGLEWVAVISFAGEIDYYVDSVKGRFTISRDNSKNTLFLQMNSLRAEDTAVYYCARDRLNYYESSGYYHYKYYGMAVWGQGTTVTVSS
VL: QSVLTQPPSVSAAPGQKVTISCSGSSSNIGNNYVSWYQQLPGTAPKLLIYDNNKRPSGIPDRFSGSKSGTSATLGITGLQTGDEADYYCGTWDSRLSAVVFGGGTKLTVLG
B6: anti-CGRP receptor variant 01, yeast-displayed Fab (Fab, V domains shown)
VH: QVQLVESGGGVVQPGRSLRLSCAASGFTFSSFGMHWVRQAPGKGLEWVAVISFDGSIKYSVDSVKGRFTISRDNSKNTLFLQMNSLRAEDTAVYYCARDRLNYYESSGYYHYKYYGMAVWGQGTTVTVSS
VL: QSVLTQPPSVSAAPGQKVTISCSGSYSNIGRYSVSWYQQLPGTAPKLLIYDNNKRPSGIPDRFSGSKSGTSATLGITGLQTGDEADYYCGTWDSRLSAVVFGGGTKLTVLG
B7: anti-CGRP receptor variant 04, yeast-displayed Fab (Fab, V domains shown)
VH: QVQLVESGGGVVQPGRSLRLSCAASGFTFSSFGMHWVRQAPGKGLEWVAVISFDGSIKYSVDSVKGRFTISRDNSKNTLFLQMNSLRAEDTAVYYCARDRLNYYRSFGYYGYHYYGMAVWGQGTTVTVSS
VL: QSVLTQPPSVSAAPGQKVTISCSGSSSNIGNNYVSWYQQLPGTAPKLLIYDNNKRPSGIPDRFSGSKSGTSATLGITGLQTGDEADYYCGTWDSRLSAVVFGGGTKLTVLG
B8: anti-CGRP receptor variant 05, yeast-displayed Fab (Fab, V domains shown)
VH: QVQLVESGGGVVQPGRSLRLSCAASGFTFSSFGMHWVRQAPGKGLEWVAVISFDGSIKYSVDSVKGRFTISRDNSKNTLFLQMNSLRAEDTAVYYCARDRLNYYESSGYYHYKYYGMAVWGQGTTVTVSS
VL: QSVLTQPPSVSAAPGQKVTISCSGSFSNIGRSTVSWYQQLPGTAPKLLIYDNRWRAGGIPDRFSGSKSGTSATLGITGLQTGDEADYYCGTWDYQWKAVVFGGGTKLTVLG
B9: anti-CGRP receptor variant 14, yeast-displayed Fab (Fab, V domains shown)
VH: QVQLVESGGGVVQPGRSLRLSCAASGFTFSSFGMHWVRQAPGKGLEWVAVISFDGSIKYSVDSVKGRFTISRDNSKNTLFLQMNSLRAEDTAVYYCARDRLNYYESSGYYHYKYYGMAVWGQGTTVTVSS
VL: QSVLTQPPSVSAAPGQKVTISCSGSSSNIGNNYVSWYQQLPGTAPKLLIYDNNKRPSGIPDRFSGSKSGTSATLGITGLQTGDEADYYCGTWDSWHRVVTFGGGTKLTVLG
B10: anti-CGRP receptor variant 15, yeast-displayed Fab (Fab, V domains shown)
VH: QVQLVESGGGVVQPGRSLRLSCAASGFTFSSFGMHWVRQAPGKGLEWVAVISFDGSIKYSVDSVKGRFTISRDNSKNTLFLQMNSLRAEDTAVYYCARDRLNYYESSGYYHYKYYGMAVWGQGTTVTVSS
VL: QSVLTQPPSVSAAPGQKVTISCSGSSSNIGNNYVSWYQQLPGTAPKLLIYDNNKRPSGIPDRFSGSKSGTSATLGITGLQTGDEADYYCGTWDWWRKAVIFGGGTKLTVLG
B11: anti-CGRP receptor variant 07, yeast-displayed Fab (Fab, V domains shown)
VH: QVQLVESGGGVVQPGRSLRLSCAASGFYFMTYGMHWVRQAPGKGLEWVAVISFDGSIKYSVDSVKGRFTISRDNSKNTLFLQMNSLRAEDTAVYYCARDRLNYYESSGYYHYKYYGMAVWGQGTTVTVSS
VL: QSVLTQPPSVSAAPGQKVTISCSGSSSNIGNNYVSWYQQLPGTAPKLLIYDNNKRPSGIPDRFSGSKSGTSATLGITGLQTGDEADYYCGTWDSRLSAVVFGGGTKLTVLG
B12: anti-CGRP receptor variant 13, yeast-displayed Fab (Fab, V domains shown)
VH: QVQLVESGGGVVQPGRSLRLSCAASGFTFSSFGMHWVRQAPGKGLEWVAVISFDGSIKYSVDSVKGRFTISRDNSKNTLFLQMNSLRAEDTAVYYCARDRLNYYESSGYYHYKYYGMAVWGQGTTVTVSS
VL: QSVLTQPPSVSAAPGQKVTISCSGSRSNIGRRTVSWYQQLPGTAPKLLIYDNNKRPSGIPDRFSGSKSGTSATLGITGLQTGDEADYYCGTWDSRLSAVVFGGGTKLTVLG
B13: anti-CGRP receptor variant 12, yeast-displayed Fab (Fab, V domains shown)
VH: QVQLVESGGGVVQPGRSLRLSCAASGFTFSSFGMHWVRQAPGKGLEWVAVISFDGSIKYSVDSVKGRFTISRDNSKNTLFLQMNSLRAEDTAVYYCARDRLNYYESSGYYHYKYYGMAVWGQGTTVTVSS
VL: QSVLTQPPSVSAAPGQKVTISCSGSRSNIGRYSVSWYQQLPGTAPKLLIYDNRYRAQGIPDRFSGSKSGTSATLGITGLQTGDEADYYCGTWDWATTSVVFGGGTKLTVLG

What follows are binders tested against programmed cell death protein 1 (PD1) extracellular domain (assay: yeast-displayed Fab binding screen against PD1 ECD).

Question: How did the binding turn out when B1 was run?
Answer: Its binding is “no binding”.

Question: For B2, which binding is on record?
Answer: Its binding is “no binding”.

Question: B3 was tested. Which binding did it give?
Answer: Its binding is “no binding”.

Question: Which binding does the source give for B4 here?
Answer: The binding was “no binding”.

Question: For B5, which binding is on record?
Answer: Its binding is “no binding”.

Question: For B6, which binding is on record?
Answer: Its binding is “no binding”.

Question: How did the binding turn out when B7 was run?
Answer: Its binding is “no binding”.

Question: How did the binding turn out when B8 was run?
Answer: The binding was “no binding”.

Question: For B9, which binding is on record?
Answer: The binding was “no binding”.

Question: B10 was tested. Which binding did it give?
Answer: Its binding is “no binding”.

Question: With B11 as the binder, how does the binding read?
Answer: Its binding is “no binding”.

Question: For B12, which binding is on record?
Answer: The binding was “no binding”.

Question: B13 was tested. Which binding did it give?
Answer: Its binding is “no binding”.
